The values below come from paper PMC7738853.

By UniProt entry, the sequences of proteins in these tests, tags left out.
UniProt Q9Y3Z3: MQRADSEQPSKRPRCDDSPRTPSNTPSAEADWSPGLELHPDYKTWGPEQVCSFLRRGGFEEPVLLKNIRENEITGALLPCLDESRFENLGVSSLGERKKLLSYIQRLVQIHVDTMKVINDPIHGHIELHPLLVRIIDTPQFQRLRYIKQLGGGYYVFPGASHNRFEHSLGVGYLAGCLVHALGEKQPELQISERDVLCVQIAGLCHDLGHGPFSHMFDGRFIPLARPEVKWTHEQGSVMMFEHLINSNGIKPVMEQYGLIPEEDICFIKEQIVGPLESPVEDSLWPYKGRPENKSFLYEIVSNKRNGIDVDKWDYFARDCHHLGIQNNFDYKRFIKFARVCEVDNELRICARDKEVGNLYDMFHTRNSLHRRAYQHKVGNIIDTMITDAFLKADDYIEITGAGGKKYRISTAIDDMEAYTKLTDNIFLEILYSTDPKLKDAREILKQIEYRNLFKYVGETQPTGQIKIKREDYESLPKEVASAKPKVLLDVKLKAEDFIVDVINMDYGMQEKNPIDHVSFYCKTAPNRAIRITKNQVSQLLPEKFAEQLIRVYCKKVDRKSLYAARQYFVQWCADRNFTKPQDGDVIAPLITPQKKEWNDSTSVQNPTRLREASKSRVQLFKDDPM

Results are given in words; binding and its absence hold for the method and conditions named. Binding seen in cells or lysates may run through a third protein. Some results given as binding are weak or reduced against the parent protein; the word gives no strength. For part of these data: Tags and fused reporters may be left off the sequences shown.

The target of one test is T1, HA-OGT (HEK293T) (human) (UniProt O15294).
T1 sequence: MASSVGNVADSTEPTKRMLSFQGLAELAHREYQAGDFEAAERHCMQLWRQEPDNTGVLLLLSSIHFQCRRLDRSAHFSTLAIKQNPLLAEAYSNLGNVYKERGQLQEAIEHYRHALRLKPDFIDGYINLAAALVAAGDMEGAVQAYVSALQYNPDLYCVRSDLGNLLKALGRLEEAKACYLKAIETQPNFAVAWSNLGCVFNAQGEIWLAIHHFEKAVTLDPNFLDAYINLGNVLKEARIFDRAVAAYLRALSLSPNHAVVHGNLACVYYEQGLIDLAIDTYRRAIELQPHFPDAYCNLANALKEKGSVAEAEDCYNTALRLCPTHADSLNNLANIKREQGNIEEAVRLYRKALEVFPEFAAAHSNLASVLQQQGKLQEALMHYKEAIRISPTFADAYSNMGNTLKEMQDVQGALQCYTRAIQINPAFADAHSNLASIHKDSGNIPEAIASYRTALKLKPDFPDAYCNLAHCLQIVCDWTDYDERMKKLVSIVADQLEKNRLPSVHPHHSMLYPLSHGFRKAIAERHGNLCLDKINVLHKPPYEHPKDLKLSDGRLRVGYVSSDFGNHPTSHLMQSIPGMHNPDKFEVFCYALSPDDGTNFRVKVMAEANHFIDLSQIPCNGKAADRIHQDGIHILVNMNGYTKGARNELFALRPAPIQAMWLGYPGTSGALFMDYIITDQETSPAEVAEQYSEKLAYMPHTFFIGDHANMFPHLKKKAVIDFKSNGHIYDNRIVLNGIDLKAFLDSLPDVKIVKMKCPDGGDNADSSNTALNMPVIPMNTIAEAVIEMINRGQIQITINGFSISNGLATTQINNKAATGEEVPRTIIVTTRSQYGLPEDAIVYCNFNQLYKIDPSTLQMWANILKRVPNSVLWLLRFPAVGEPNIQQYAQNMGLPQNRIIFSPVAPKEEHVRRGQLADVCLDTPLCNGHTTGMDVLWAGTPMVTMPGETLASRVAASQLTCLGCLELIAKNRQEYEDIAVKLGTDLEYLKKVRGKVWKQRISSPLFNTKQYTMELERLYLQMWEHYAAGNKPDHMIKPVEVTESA
Description: co-IP; HEK293T cells co-transfected with the Flag- and HA-tagged constructs; immunoprecipitation with anti-HA antibody, immunoblot. In general terms: Immunoblotting shows a protein as a band on a membrane.

For test [1], the target named is sterile alpha motif and histidine/aspartic acid domain-containing protein 1 (SAMHD1), endogenous in HepG2 cells (human (endogenous in HepG2)) (UniProt Q9Y3Z3). The test is described as follows: co-IP; endogenous proteins; HepG2 cell extracts immunoprecipitated with anti-SAMHD1 antibody, immunoblot.
Test [2] deals with HA-SAMHD1 (HEK293T) (human) (UniProt Q9Y3Z3). The test is described as follows: co-IP; HEK293T cells co-transfected with the Flag- and HA-tagged constructs; immunoprecipitation with anti-HA antibody, immunoblot.

“Flag-SAMHD1 (HEK293T) (from UniProt Q9Y3Z3 1-626)”: in the test with HA-OGT (HEK293T) (human), the binding result is “binds”.

B1: O-GlcNAc transferase (OGT), endogenous in HepG2 cells (enzyme, UniProt O15294 1-1046)
chain: T1 sequence
As to B1, the binding result in test [1] was “binds”.

B2: Flag-OGT (HEK293T) (enzyme, UniProt O15294 1-1046)
chain: T1 sequence
As to B2, in test [2], the binding entry is given as “binds”.
